Consider ten molecules from patent US11065203B2, “Liposomal compositions and uses of same” (Technion Research & Development Foundation Limited, priority 2009, dated 2021).

The nature of the data set: Proteomics analysis (trypsin digest, LC-MS/MS) of hMSC ghosts and derived CDLs, conditioned or unconditioned by PC3 medium. As to conditions: LC-MS/MS peak area per protein; for Ratio of expression Cond. CDLs/Cond. Ghosts: CDLs derived from conditioned hMSCs versus conditioned ghosts; for Ratio of expression Cond Ghosts/Ghosts: hMSC ghosts conditioned by PC3 medium versus unconditioned ghosts. On the set-up: species or system human.

B1: P07954 (protein, UniProt P07954 1-510, looked up)
chain: MYRALRLLARSRPLVRAPAAALASAPGLGGAAVPSFWPPNAARMASQNSFRIEYDTFGELKVPNDKYYGAQTVRSTMNFKIGGVTERMPTPVIKAFGILKRAAAEVNQDYGLDPKIANAIMKAADEVAEGKLNDHFPLVVWQTGSGTQTNMNVNEVISNRAIEMLGGELGSKIPVHPNDHVNKSQSSNDTFPTAMHIAAAIEVHEVLLPGLQKLHDALDAKSKEFAQIIKIGRTHTQDAVPLTLGQEFSGYVQQVKYAMTRIKAAMPRIYELAAGGTAVGTGLNTRIGFAEKVAAKVAALTGLPFVTAPNKFEALAAHDALVELSGAMNTTACSLMKIANDIRFLGSGPRSGLGELILPENEPGSSIMPGKVNPTQCEAMTMVAAQVMGNHVAVTVGGSNGHFELNVFKPMMIKNVLHSARLLGDASVSFTENCVVGIQANTERINKLMNESLMLVTALNPHIGYDKAAKIAKTAHKNGSTLKETAIELGYLTAEQFDEWVKPKDMLGPK
modifications: full-length
With B1, the “Ratio of expression Cond. CDLs/Cond. Ghosts” value is recorded as 3% and the “Ratio of expression Cond Ghosts/Ghosts” value is given as 100%.

B2: Q9H845 (protein, UniProt Q9H845 1-621, looked up)
chain: MSGCGLFLRTTAAARACRGLVVSTANRRLLRTSPPVRAFAKELFLGKIKKKEVFPFPEVSQDELNEINQFLGPVEKFFTEEVDSRKIDQEGKIPDETLEKLKSLGLFGLQVPEEYGGLGFSNTMYSRLGEIISMDGSITVTLAAHQAIGLKGIILAGTEEQKAKYLPKLASGEHIAAFCLTEPASGSDAASIRSRATLSEDKKHYILNGSKVWITNGGLANIFTVFAKTEVVDSDGSVKDKITAFIVERDFGGVTNGKPEDKLGIRGSNTCEVHFENTKIPVENILGEVGDGFKVAMNILNSGRFSMGSVVAGLLKRLIEMTAEYACTRKQFNKRLSEFGLIQEKFALMAQKAYVMESMTYLTAGMLDQPGFPDCSIEAAMVKVFSSEAAWQCVSEALQILGGLGYTRDYPYERILRDTRILLIFEGTNEILRMYIALTGLQHAGRILTTRIHELKQAKVSTVMDTVGRRLRDSLGRTVDLGLTGNHGVVHPSLADSANKFEENTYCFGRTVETLLLRFGKTIMEEQLVLKRVANILINLYGMTAVLSRASRSIRIGLRNHDHEVLLANTFCVEAYLQNLFSLSQLDKYAPENLDEQIKKVSQQILEKRAYICAHPLDRTC
modifications: full-length
Take B2: the “Ratio of expression Cond. CDLs/Cond. Ghosts” value is on record as 7% and the “Ratio of expression Cond Ghosts/Ghosts” value is listed as 209%.

B3: Q92520 (protein, UniProt Q92520 1-227, looked up)
chain: MRVAGAAKLVVAVAVFLLTFYVISQVFEIKMDASLGNLFARSALDTAARSTKPPRYKCGISKACPEKHFAFKMASGAANVVGPKICLEDNVLMSGVKNNVGRGINVALANGKTGEVLDTKYFDMWGGDVAPFIEFLKAIQDGTIVLMGTYDDGATKLNDEARRLIADLGSTSITNLGFRDNWVFCGGKGIKTKSPFEQHIKNNKDTNKYEGWPEVVEMEGCIPQKQD
modifications: full-length
In the case of B3, the “Ratio of expression Cond. CDLs/Cond. Ghosts” value came out at 3% and the “Ratio of expression Cond Ghosts/Ghosts” value came to 100%.

B4: P13804 (protein, UniProt P13804 1-333, looked up)
chain: MFRAAAPGQLRRAASLLRFQSTLVIAEHANDSLAPITLNTITAATRLGGEVSCLVAGTKCDKVAQDLCKVAGIAKVLVAQHDVYKGLLPEELTPLILATQKQFNYTHICAGASAFGKNLLPRVAAKLEVAPISDIIAIKSPDTFVRTIYAGNALCTVKCDEKVKVFSVRGTSFDAAATSGGSASSEKASSTSPVEISEWLDQKLTKSDRPELTGAKVVVSGGRGLKSGENFKLLYDLADQLHAAVGASRAAVDAGFVPNDMQVGQTGKIVAPELYIAVGISGAIQHLAGMKDSKTIVAINKDPEAPIFQVADYGIVADLFKVVPEMTEILKKK
modifications: full-length
With B4, the “Ratio of expression Cond. CDLs/Cond. Ghosts” value came to 3% and the “Ratio of expression Cond Ghosts/Ghosts” value is given as 100%.

B5: Q969H8 (protein, UniProt Q969H8 1-173, looked up)
chain: MAAPSGGWNGVGASLWAALLLGAVALRPAEAVSEPTTVAFDVRPGGVVHSFSHNVGPGDKYTCMFTYASQGGTNEQWQMSLGTSEDHQHFTCTIWRPQGKSYLYFTQFKAEVRGAEIEYAMAYSKAAFERESDVPLKTEEFEVTKTAVAHRPGAFKAELSKLVIVAKASRTEL
modifications: full-length
With B5, the “Ratio of expression Cond. CDLs/Cond. Ghosts” value is listed as 3% and the “Ratio of expression Cond Ghosts/Ghosts” value was 100%.

B6: P04181 (protein, UniProt P04181 1-439, looked up)
chain: MFSKLAHLQRFAVLSRGVHSSVASATSVATKKTVQGPPTSDDIFEREYKYGAHNYHPLPVALERGKGIYLWDVEGRKYFDFLSSYSAVNQGHCHPKIVNALKSQVDKLTLTSRAFYNNVLGEYEEYITKLFNYHKVLPMNTGVEAGETACKLARKWGYTVKGIQKYKAKIVFAAGNFWGRTLSAISSSTDPTSYDGFGPFMPGFDIIPYNDLPALERALQDPNVAAFMVEPIQGEAGVVVPDPGYLMGVRELCTRHQVLFIADEIQTGLARTGRWLAVDYENVRPDIVLLGKALSGGLYPVSAVLCDDDIMLTIKPGEHGSTYGGNPLGCRVAIAALEVLEEENLAENADKLGIILRNELMKLPSDVVTAVRGKGLLNAIVIKETKDWDAWKVCLRLRDNGLLAKPTHGDIIRFAPPLVIKEDELRESIEIINKTILSF
modifications: full-length
For the molecule B6, the “Ratio of expression Cond. CDLs/Cond. Ghosts” value was found to be 3% and the “Ratio of expression Cond Ghosts/Ghosts” value worked out at 100%.

B7: Q14103 (protein, UniProt Q14103 1-355, looked up)
chain: MSEEQFGGDGAAAAATAAVGGSAGEQEGAMVAATQGAAAAAGSGAGTGGGTASGGTEGGSAESEGAKIDASKNEEDEGHSNSSPRHSEAATAQREEWKMFIGGLSWDTTKKDLKDYFSKFGEVVDCTLKLDPITGRSRGFGFVLFKESESVDKVMDQKEHKLNGKVIDPKRAKAMKTKEPVKKIFVGGLSPDTPEEKIREYFGGFGEVESIELPMDNKTNKRRGFCFITFKEEEPVKKIMEKKYHNVGLSKCEIKVAMSKEQYQQQQQWGSRGGFAGRARGRGGGPSQNWNQGYSNYWNQGYGNYGYNSQGYGGYGGYDYTGYNNYYGYGDYSNQQSGYGKVSRRGGHQNSYKPY
modifications: full-length
As for B7, the “Ratio of expression Cond. CDLs/Cond. Ghosts” value is listed as 0% and the “Ratio of expression Cond Ghosts/Ghosts” value was determined as 198%.

B8: Q14697 (protein, UniProt Q14697 1-944, looked up)
chain: MAAVAAVAARRRRSWASLVLAFLGVCLGITLAVDRSNFKTCEESSFCKRQRSIRPGLSPYRALLDSLQLGPDSLTVHLIHEVTKVLLVLELQGLQKNMTRFRIDELEPRRPRYRVPDVLVADPPIARLSVSGRDENSVELTMAEGPYKIILTARPFRLDLLEDRSLLLSVNARGLLEFEHQRAPRVSQGSKDPAEGDGAQPEETPRDGDKPEETQGKAEKDEPGAWEETFKTHSDSKPYGPMSVGLDFSLPGMEHVYGIPEHADNLRLKVTEGGEPYRLYNLDVFQYELYNPMALYGSVPVLLAHNPHRDLGIFWLNAAETWVDISSNTAGKTLFGKMMDYLQGSGETPQTDVRWMSETGIIDVFLLLGPSISDVFRQYASLTGTQALPPLFSLGYHQSRWNYRDEADVLEVDQGFDDHNLPCDVIWLDIEHADGKRYFTWDPSRFPQPRTMLERLASKRRKLVAIVDPHIKVDSGYRVHEELRNLGLYVKTRDGSDYEGWCWPGSAGYPDFTNPTMRAWWANMFSYDNYEGSAPNLFVWNDMNEPSVFNGPEVTMLKDAQHYGGWEHRDVHNIYGLYVHMATADGLRQRSGGMERPFVLARAFFAGSQRFGAVWTGDNTAEWDHLKISIPMCLSLGLVGLSFCGADVGGFFKNPEPELLVRWYQMGAYQPFFRAHAHLDTGRREPWLLPSQHNDIIRDALGQRYSLLPFWYTLLYQAHREGIPVMRPLWVQYPQDVTTFNIDDQYLLGDALLVHPVSDSGAHGVQVYLPGQGEVWYDIQSYQKHHGPQTLYLPVTLSSIPVFQRGGTIVPRWMRVRRSSECMKDDPITLFVALSPQGTAQGELFLDDGHTFNYQTRQEFLLRRFSFSGNTLVSSSADPEGHFETPIWIERVVIIGAGKPAAVVLQTKGSPESRLSFQHDPETSVLVLRKPGINVASDWSIHLR
modifications: full-length
For B8, the “Ratio of expression Cond. CDLs/Cond. Ghosts” value stood at 3% and the “Ratio of expression Cond Ghosts/Ghosts” value came to 100%.

B9: Q9UIJ7 (protein, UniProt Q9UIJ7 1-227, looked up)
chain: MGASARLLRAVIMGAPGSGKGTVSSRITTHFELKHLSSGDLLRDNMLRGTEIGVLAKAFIDQGKLIPDDVMTRLALHELKNLTQYSWLLDGFPRTLPQAEALDRAYQIDTVINLNVPFEVIKQRLTARWIHPASGRVYNIEFNPPKTVGIDDLTGEPLIQREDDKPETVIKRLKAYEDQTKPVLEYYQKKGVLETFSGTETNKIWPYVYAFLQTKVPQRSQKASVTP
modifications: full-length
Regarding B9, the “Ratio of expression Cond. CDLs/Cond. Ghosts” value was determined as 3% and the “Ratio of expression Cond Ghosts/Ghosts” value was 100%.

B10: Q92896 (protein, UniProt Q92896 1-1179, looked up)
chain: MAACGRVRRMFRLSAALHLLLLFAAGAEKLPGQGVHSQGQGPGANFVSFVGQAGGGGPAGQQLPQLPQSSQLQQQQQQQQQQQQPQPPQPPFPAGGPPARRGGAGAGGGWKLAEEESCREDVTRVCPKHTWSNNLAVLECLQDVREPENEISSDCNHLLWNYKLNLTTDPKFESVAREVCKSTITEIKECADEPVGKGYMVSCLVDHRGNITEYQCHQYITKMTAIIFSDYRLICGFMDDCKNDINILKCGSIRLGEKDAHSQGEVVSCLEKGLVKEAEEREPKIQVSELCKKAILRVAELSSDDFHLDRHLYFACRDDRERFCENTQAGEGRVYKCLFNHKFEESMSEKCREALTTRQKLIAQDYKVSYSLAKSCKSDLKKYRCNVENLPRSREARLSYLLMCLESAVHRGRQVSSECQGEMLDYRRMLMEDFSLSPEIILSCRGEIEHHCSGLHRKGRTLHCLMKVVRGEKGNLGMNCQQALQTLIQETDPGADYRIDRALNEACESVIQTACKHIRSGDPMILSCLMEHLYTEKMVEDCEHRLLELQYFISRDWKLDPVLYRKCQGDASRLCHTHGWNETSEFMPQGAVFSCLYRHAYRTEEQGRRLSRECRAEVQRILHQRAMDVKLDPALQDKCLIDLGKWCSEKTETGQELECLQDHLDDLVVECRDIVGNLTELESEDIQIEALLMRACEPIIQNFCHDVADNQIDSGDLMECLIQNKHQKDMNEKCAIGVTHFQLVQMKDFRFSYKFKMACKEDVLKLCPNIKKKVDVVICLSTTVRNDTLQEAKEHRVSLKCRRQLRVEELEMTEDIRLEPDLYEACKSDIKNFCSAVQYGNAQIIECLKENKKQLSTRCHQKVFKLQETEMMDPELDYTLMRVCKQMIKRFCPEADSKTMLQCLKQNKNSELMDPKCKQMITKRQITQNTDYRLNPMLRKACKADIPKFCHGILTKAKDDSELEGQVISCLKLRYADQRLSSDCEDQIRIIIQESALDYRLDPQLQLHCSDEISSLCAEEAAAQEQTGQVEECLKVNLLKIKTELCKKEVLNMLKESKADIFVDPVLHTACALDIKHHCAAITPGRGRQMSCLMEALEDKRVRLQPECKKRLNDRIEMWSYAAKVAPADGFSDLAMQVMTSPSKNYILSVISGSICILFLIGLMCGRITKRVTRELKDR
modifications: full-length
In the case of B10, the “Ratio of expression Cond. CDLs/Cond. Ghosts” value is on record as 3% and the “Ratio of expression Cond Ghosts/Ghosts” value was 100%.
